# Measured values as given in the supplement of paper PMC8007513.
# The other results are listed elsewhere or left out. Single values are uncertain, as repeats are few or missing.
# Tested on: Saccharomyces cerevisiae BY4743
# Experiment: growth (OD600) with compound + IPBC relative to untreated control; higher = less growth inhibition
# Conditions: compound concentration: 133 uM; IPBC concentration: 0.5 ug/ml; 20 h
# Protocol: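 NMCCC compounds (133 uM) combined with IPBC (0.5 ug/ml) against Saccharomyces cerevisiae BY4743 in YPD, 96-well plates. Growth was read as OD600 at 20 h and expressed as % of the untreated control. Single pass.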
row,SMILES,growth [%]
1,CC(=O)\C1=C(/O)C(=O)N(C1C2=CC=CN=C2)C3=CC=C(OCC(O)=O)C=C3 (centres undefined) + CCCCNC(=O)OCC#CI [3-iodo-2-propynyl butylcarbamate (IPBC)],85
2,Cc1ccccc1S(=O)(=O)Nc1ncc(C(F)(F)F)cc1Cl + CCCCNC(=O)OCC#CI [3-iodo-2-propynyl butylcarbamate (IPBC)],106
3,Cc1cc2c(N)c(C(N)=O)sc2nc1-c1ccc(F)cc1 + CCCCNC(=O)OCC#CI [3-iodo-2-propynyl butylcarbamate (IPBC)],109
4,CCn1c(C)cc(C(=O)CSc2n[nH]c(N)n2)c1C + CCCCNC(=O)OCC#CI [3-iodo-2-propynyl butylcarbamate (IPBC)],110
5,CCC1=CC=C(C=C1)C(CN[S](=O)(=O)\C2=C\C3=CC=CC=C3CC2)N(C)C (centres undefined) + CCCCNC(=O)OCC#CI [3-iodo-2-propynyl butylcarbamate (IPBC)],101
6,CCOC(=O)N1CCN(C(=O)c2noc3c2CCCCC3)CC1 + CCCCNC(=O)OCC#CI [3-iodo-2-propynyl butylcarbamate (IPBC)],103
7,CNS(=O)(=O)c1cc(NC(=O)c2cc3ccccc3cc2O)ccc1C + CCCCNC(=O)OCC#CI [3-iodo-2-propynyl butylcarbamate (IPBC)],90.1
8,CCOC(=O)c1ccccc1NS(=O)(=O)c1ccc(S(=O)(=O)N2CCCC2)cc1 + CCCCNC(=O)OCC#CI [3-iodo-2-propynyl butylcarbamate (IPBC)],86.2
9,CC1(C)CC(NC(=O)CNC(=O)Cc2nnc(O)c3ccccc23)CC(C)(C)N1 + CCCCNC(=O)OCC#CI [3-iodo-2-propynyl butylcarbamate (IPBC)],107
10,CCC1CCCCN1C(=O)C(C)OC(=O)c1ccc(-n2cccn2)cc1 (centres undefined) + CCCCNC(=O)OCC#CI [3-iodo-2-propynyl butylcarbamate (IPBC)],88.6
11,CCCCc1ccc(CC(=O)Nc2ccc3c(c2)NC(=O)C(C)O3)cc1 (centres undefined) + CCCCNC(=O)OCC#CI [3-iodo-2-propynyl butylcarbamate (IPBC)],98.7
12,CC(=O)c1c(C)[nH]c(C(=O)C(C)N2CCC(NS(C)(=O)=O)CC2)c1C (centres undefined) + CCCCNC(=O)OCC#CI [3-iodo-2-propynyl butylcarbamate (IPBC)],111
13,CC/1=C/N2C(=O)\C=C(NC3CC(C)(C)NC(C)(C)C3)/N=C2/C=C1 + CCCCNC(=O)OCC#CI [3-iodo-2-propynyl butylcarbamate (IPBC)],99.6
14,Cc1ccc(-n2cnnn2)cc1NCC(=O)NC1CCCCCC1 + CCCCNC(=O)OCC#CI [3-iodo-2-propynyl butylcarbamate (IPBC)],88.1
15,CCOC(=O)Cc1csc(SCc2cc(C)no2)n1 + CCCCNC(=O)OCC#CI [3-iodo-2-propynyl butylcarbamate (IPBC)],86.8
16,CCOC(=O)c1cc(S(=O)(=O)N(C)CC(=O)Nc2cccc(C)n2)cn1C + CCCCNC(=O)OCC#CI [3-iodo-2-propynyl butylcarbamate (IPBC)],110
17,COC(CNC(=O)CN1\N=C(\CC2=CC=NC=C2)C3=CC=CC=C3C1=O)OC + CCCCNC(=O)OCC#CI [3-iodo-2-propynyl butylcarbamate (IPBC)],82.9
18,Cc1cc(N2CCCC2)ccc1NC(=O)C(NS(=O)(=O)/C=C/c1ccccc1)C(C)C (centres undefined) + CCCCNC(=O)OCC#CI [3-iodo-2-propynyl butylcarbamate (IPBC)],113
19,COC(=O)c1ccc(CSc2nnc(CNC(=O)c3ccccc3F)o2)o1 + CCCCNC(=O)OCC#CI [3-iodo-2-propynyl butylcarbamate (IPBC)],94.5
20,Cc1cc(C)c2[nH]c(C)c(CC(=O)N3CCOCC3)c2c1 + CCCCNC(=O)OCC#CI [3-iodo-2-propynyl butylcarbamate (IPBC)],89

# Reprinted at random: 2 records from the list
row,SMILES,growth [%]
16,CCOC(=O)c1cc(S(=O)(=O)N(C)CC(=O)Nc2cccc(C)n2)cn1C + CCCCNC(=O)OCC#CI [3-iodo-2-propynyl butylcarbamate (IPBC)],110
3,Cc1cc2c(N)c(C(N)=O)sc2nc1-c1ccc(F)cc1 + CCCCNC(=O)OCC#CI [3-iodo-2-propynyl butylcarbamate (IPBC)],109

# (list continues)

row,SMILES,growth [%]
1,CCOC(=O)c1ccc(N2CCN(C(=O)COc3ccccc3)CC2)nc1 + CCCCNC(=O)OCC#CI [3-iodo-2-propynyl butylcarbamate (IPBC)],102
2,Cc1ccc(Nc2nc(SCc3ccccc3)nnc2C)cc1 + CCCCNC(=O)OCC#CI [3-iodo-2-propynyl butylcarbamate (IPBC)],88.8
3,COc1ccc(CN(C)C(=O)c2cc(Br)ccc2F)c(OC)c1OC + CCCCNC(=O)OCC#CI [3-iodo-2-propynyl butylcarbamate (IPBC)],89.2
4,COc1ccc(-c2cc(C(=O)NCc3nccn3C)on2)cc1 + CCCCNC(=O)OCC#CI [3-iodo-2-propynyl butylcarbamate (IPBC)],85.3
5,CCCC(=O)Nc1nc2cc(NS(=O)(=O)c3cccs3)ccc2s1 + CCCCNC(=O)OCC#CI [3-iodo-2-propynyl butylcarbamate (IPBC)],106
6,COC(=O)c1cc(CNC(=O)CSCc2c(C)noc2C)ccc1OC + CCCCNC(=O)OCC#CI [3-iodo-2-propynyl butylcarbamate (IPBC)],97.2
7,CCOC(=O)C(CC)N1\C=N/C2=C(C=N[N]2C3=CC=C(Cl)C=C3)C1=O (centres undefined) + CCCCNC(=O)OCC#CI [3-iodo-2-propynyl butylcarbamate (IPBC)],100
8,COc1ccc(-c2nnc(SCC(=O)NC(C)(C#N)C(C)C)o2)cc1 (centres undefined) + CCCCNC(=O)OCC#CI [3-iodo-2-propynyl butylcarbamate (IPBC)],103
9,O=C(CN1CCN(c2csc(Cl)n2)CC1)Nc1ccc(Cl)c(C(F)(F)F)c1 + CCCCNC(=O)OCC#CI [3-iodo-2-propynyl butylcarbamate (IPBC)],101
10,CC(C)C(Nc1ccc(C(F)(F)F)cc1Cl)C(=O)OCC(=O)N1CCNC1=O (centres undefined) + CCCCNC(=O)OCC#CI [3-iodo-2-propynyl butylcarbamate (IPBC)],47.6
11,CCC1CCCCN1C(=O)COC(=O)c1[nH]c(C)c(C(C)=O)c1C (centres undefined) + CCCCNC(=O)OCC#CI [3-iodo-2-propynyl butylcarbamate (IPBC)],71.9
12,CCN(CC)CCNc1nc2c(c(=O)[nH]c(=O)n2C)n1CC(C)C + CCCCNC(=O)OCC#CI [3-iodo-2-propynyl butylcarbamate (IPBC)],91.1
13,COC(=O)c1cc(NC(=O)c2cc(S(N)(=O)=O)ccc2N2CCOCC2)ccc1F + CCCCNC(=O)OCC#CI [3-iodo-2-propynyl butylcarbamate (IPBC)],84.6
14,COc1ccc(CNC(=O)c2cc(C(F)(F)F)nn2C)cc1OC + CCCCNC(=O)OCC#CI [3-iodo-2-propynyl butylcarbamate (IPBC)],99.9
15,Nn1c(SCC(=O)NC(=O)NCc2ccccc2)nnc1C1CC1 + CCCCNC(=O)OCC#CI [3-iodo-2-propynyl butylcarbamate (IPBC)],91.6
16,CCOc1cccc(CC(=O)Nc2nc3ccc(Cl)cc3o2)c1OCC + CCCCNC(=O)OCC#CI [3-iodo-2-propynyl butylcarbamate (IPBC)],97.9
17,CCN(C(=O)Nc1cccc(C(C)=O)c1)c1nc(-c2ccc(C)cc2)cs1 + CCCCNC(=O)OCC#CI [3-iodo-2-propynyl butylcarbamate (IPBC)],82.4
18,CC(C)CN1\C(=C(/C(=O)N(C)C1=O)C2=CSC(=N2)NC3=CC=C(Cl)C=C3)N + CCCCNC(=O)OCC#CI [3-iodo-2-propynyl butylcarbamate (IPBC)],106
19,CCOC(=O)N1CCN(c2ccc(S(N)(=O)=O)cn2)CC1 + CCCCNC(=O)OCC#CI [3-iodo-2-propynyl butylcarbamate (IPBC)],112
